Data from PMC10892618.
Results are given in words; binding and its absence hold for the method and conditions named. In cells and extracts the contact can be indirect. Some binding calls cover weakened binding; strength is not graded here. For some assays here: Where a sequence is shown, tags or fusion partners need not be part of it.

The chains behind the UniProt entries cited, without tags or fusion partners.
UniProt P16403: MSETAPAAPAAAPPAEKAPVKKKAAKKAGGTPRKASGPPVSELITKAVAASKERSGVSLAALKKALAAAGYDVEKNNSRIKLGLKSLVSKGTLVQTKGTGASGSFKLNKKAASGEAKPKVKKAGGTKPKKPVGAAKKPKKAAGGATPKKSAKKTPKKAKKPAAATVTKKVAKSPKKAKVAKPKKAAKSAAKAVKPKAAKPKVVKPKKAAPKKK
UniProt Q7Z434: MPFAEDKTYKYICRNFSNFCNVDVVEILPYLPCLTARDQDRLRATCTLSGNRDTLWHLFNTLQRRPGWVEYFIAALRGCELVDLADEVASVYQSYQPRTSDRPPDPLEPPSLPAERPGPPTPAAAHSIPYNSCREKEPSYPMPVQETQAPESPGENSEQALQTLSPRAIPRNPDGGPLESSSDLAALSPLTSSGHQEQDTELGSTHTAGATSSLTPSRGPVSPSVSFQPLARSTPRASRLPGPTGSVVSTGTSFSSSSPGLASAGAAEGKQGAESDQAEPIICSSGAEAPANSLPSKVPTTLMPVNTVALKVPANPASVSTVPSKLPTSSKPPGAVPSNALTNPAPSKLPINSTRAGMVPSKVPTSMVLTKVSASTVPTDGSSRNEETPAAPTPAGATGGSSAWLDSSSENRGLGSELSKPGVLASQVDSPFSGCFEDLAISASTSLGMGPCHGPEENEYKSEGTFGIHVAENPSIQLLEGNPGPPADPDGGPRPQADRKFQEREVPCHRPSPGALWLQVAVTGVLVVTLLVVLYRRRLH

How the values were obtained:
Myc-tagged histone H1.2 = Myc-tagged histone H1.2 (UniProt P16403); test: co-IP; HEK293T co-transfected with pCMV-Myc-H1.2 and a pCMV-Flag plasmid for 36 h; RIPA lysate; H1.2 as the precipitated protein; Protein G Agarose; western blotting
Flag-tagged MDA5 = target: T1, Flag-tagged MDA5 (UniProt Q9BYX4); test: co-IP; reverse co-IP: HEK293T co-transfected with pCMV-Myc-H1.2 and a pCMV-Flag plasmid for 36 h; immunoprecipitation with anti-Flag antibody; western blotting
T1 sequence: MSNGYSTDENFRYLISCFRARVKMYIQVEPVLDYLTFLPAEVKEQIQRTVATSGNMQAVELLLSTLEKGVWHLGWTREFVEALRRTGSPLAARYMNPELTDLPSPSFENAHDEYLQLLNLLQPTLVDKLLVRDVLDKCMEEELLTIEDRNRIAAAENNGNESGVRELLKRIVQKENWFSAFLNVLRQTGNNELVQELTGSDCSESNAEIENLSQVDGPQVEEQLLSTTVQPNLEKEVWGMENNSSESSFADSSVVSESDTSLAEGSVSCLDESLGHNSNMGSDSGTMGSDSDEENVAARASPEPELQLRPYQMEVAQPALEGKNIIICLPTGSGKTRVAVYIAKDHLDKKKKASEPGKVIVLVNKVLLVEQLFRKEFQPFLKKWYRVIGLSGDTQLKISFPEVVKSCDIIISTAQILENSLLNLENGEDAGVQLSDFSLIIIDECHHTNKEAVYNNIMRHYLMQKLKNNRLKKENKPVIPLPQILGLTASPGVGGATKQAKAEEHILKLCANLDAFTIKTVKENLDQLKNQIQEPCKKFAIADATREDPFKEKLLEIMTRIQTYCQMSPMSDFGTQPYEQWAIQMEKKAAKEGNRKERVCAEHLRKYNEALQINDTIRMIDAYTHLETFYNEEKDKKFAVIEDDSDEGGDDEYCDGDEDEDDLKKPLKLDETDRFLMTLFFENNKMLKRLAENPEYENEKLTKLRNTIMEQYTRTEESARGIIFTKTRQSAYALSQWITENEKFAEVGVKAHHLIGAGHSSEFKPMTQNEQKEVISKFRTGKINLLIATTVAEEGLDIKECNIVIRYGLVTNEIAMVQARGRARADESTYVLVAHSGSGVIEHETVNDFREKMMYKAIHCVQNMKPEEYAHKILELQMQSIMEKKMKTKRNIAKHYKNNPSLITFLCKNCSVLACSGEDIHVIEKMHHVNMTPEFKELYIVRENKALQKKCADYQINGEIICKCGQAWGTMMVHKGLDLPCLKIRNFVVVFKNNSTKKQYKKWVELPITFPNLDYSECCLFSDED

Row | binding (Myc-tagged histone H1.2) | binding (Flag-tagged MDA5) | Substance
1 | no binding | – | Flag-tagged MAVS (from UniProt Q7Z434 1-540)
2 | – | binds | Myc-tagged histone H1.2 (from UniProt P16403 1-213)
